Reference: publication PMC8954978
These are yes or no findings as the source states them, for the method shown. Binding seen in cells or lysates may run through a third protein. Some binding calls cover weakened binding; strength is not graded here.

The chains behind the UniProt entries cited, without tags or fusion partners.
UniProt O15078: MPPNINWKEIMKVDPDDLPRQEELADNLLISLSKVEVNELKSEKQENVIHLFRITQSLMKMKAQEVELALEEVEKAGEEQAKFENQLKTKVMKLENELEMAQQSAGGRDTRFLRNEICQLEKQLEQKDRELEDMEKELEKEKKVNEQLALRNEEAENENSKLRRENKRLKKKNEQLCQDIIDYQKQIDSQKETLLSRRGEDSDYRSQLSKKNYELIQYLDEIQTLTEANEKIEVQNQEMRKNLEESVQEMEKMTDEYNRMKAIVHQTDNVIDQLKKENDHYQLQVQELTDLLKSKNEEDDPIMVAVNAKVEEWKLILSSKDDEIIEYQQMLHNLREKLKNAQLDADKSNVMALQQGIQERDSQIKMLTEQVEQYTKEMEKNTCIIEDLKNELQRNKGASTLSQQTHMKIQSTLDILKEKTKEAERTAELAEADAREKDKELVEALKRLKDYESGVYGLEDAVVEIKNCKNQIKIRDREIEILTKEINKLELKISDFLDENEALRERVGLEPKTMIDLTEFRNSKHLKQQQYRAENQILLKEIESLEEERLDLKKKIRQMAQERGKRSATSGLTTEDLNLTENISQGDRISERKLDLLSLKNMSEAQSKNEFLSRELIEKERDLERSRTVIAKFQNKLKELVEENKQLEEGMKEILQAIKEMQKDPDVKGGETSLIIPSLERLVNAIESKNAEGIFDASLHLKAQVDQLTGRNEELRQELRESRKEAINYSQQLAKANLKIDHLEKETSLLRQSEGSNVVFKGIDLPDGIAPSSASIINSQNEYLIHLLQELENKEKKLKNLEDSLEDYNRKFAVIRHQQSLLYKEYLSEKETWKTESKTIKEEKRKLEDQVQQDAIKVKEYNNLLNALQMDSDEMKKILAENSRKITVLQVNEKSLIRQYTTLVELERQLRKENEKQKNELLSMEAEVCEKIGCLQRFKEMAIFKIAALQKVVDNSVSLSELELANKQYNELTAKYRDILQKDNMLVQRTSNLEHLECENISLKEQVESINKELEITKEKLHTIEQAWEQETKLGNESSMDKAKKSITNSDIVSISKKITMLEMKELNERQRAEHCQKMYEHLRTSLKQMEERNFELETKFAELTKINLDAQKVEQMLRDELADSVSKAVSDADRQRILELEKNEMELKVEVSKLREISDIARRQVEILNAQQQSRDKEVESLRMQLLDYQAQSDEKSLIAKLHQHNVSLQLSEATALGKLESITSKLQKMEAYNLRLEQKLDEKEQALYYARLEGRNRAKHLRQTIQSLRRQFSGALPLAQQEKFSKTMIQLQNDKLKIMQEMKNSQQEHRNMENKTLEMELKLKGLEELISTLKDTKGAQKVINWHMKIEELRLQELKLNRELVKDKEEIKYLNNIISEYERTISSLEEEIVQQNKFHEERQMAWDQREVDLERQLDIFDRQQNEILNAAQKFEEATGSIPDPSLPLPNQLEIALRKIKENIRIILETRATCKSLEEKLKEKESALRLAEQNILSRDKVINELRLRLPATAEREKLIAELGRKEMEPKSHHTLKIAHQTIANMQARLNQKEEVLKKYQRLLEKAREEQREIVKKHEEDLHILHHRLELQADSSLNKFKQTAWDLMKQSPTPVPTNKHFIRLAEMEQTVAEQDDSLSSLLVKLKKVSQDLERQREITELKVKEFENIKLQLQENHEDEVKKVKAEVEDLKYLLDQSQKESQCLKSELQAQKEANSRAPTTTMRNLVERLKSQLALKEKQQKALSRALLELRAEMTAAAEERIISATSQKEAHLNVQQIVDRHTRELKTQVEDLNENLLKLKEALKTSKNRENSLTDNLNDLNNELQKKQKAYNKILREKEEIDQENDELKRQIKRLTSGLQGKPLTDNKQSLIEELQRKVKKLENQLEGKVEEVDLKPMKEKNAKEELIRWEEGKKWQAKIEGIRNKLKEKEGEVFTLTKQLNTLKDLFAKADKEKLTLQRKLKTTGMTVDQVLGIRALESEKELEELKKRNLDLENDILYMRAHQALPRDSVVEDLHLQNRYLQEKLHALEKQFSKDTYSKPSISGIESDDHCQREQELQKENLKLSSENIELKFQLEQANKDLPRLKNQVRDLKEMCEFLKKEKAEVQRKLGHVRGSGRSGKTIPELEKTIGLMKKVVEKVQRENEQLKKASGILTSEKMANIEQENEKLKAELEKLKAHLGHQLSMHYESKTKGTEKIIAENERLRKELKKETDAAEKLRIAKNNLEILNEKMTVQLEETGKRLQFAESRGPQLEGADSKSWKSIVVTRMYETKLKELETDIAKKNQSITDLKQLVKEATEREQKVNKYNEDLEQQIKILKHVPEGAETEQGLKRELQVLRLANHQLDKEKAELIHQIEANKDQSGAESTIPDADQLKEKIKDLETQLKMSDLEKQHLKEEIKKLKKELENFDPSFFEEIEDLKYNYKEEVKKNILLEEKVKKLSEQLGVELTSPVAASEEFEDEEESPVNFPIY

Target: centrosomal protein 290 (human (endogenous in Hep3B)) (UniProt O15078)
Test: co-IP; CoIP in Hep3B cells, with Hep3B CEP290-/- (CRISPR knockout) cells generated for the CoIP experiments; detection by WB; which protein was precipitated is not told

binding: binds
B1: Nrf2 (protein, UniProt Q16236 1-605)
chain: MMDLELPPPGLPSQQDMDLIDILWRQDIDLGVSREVFDFSQRRKEYELEKQKKLEKERQEQLQKEQEKAFFAQLQLDEETGEFLPIQPAQHIQSETSGSANYSQVAHIPKSDALYFDDCMQLLAQTFPFVDDNEVSSATFQSLVPDIPGHIESPVFIATNQAQSPETSVAQVAPVDLDGMQQDIEQVWEELLSIPELQCLNIENDKLVETTMVPSPEAKLTEVDNYHFYSSIPSMEKEVGNCSPHFLNAFEDSFSSILSTEDPNQLTVNSLNSDATVNTDFGDEFYSAFIAEPSISNSMPSPATLSHSLSELLNGPIDVSDLSLCKAFNQNHPESTAEFNDSDSGISLNTSPSVASPEHSVESSSYGDTLLGLSDSEVEELDSAPGSVKQNGPKTPVHSSGDMVQPLSPSQGQSTHVHDAQCENTPEKELPVSPGHRKTPFTKDKHSSRLEAHLTRDELRAKALHIPFPVEKIINLPVVDFNEMMSKEQFNEAQLALIRDIRRRGKNKVAAQNCRKRKLENIVELEQDLDHLKDEKEKLLKEKGENDKSLHLLKKQLSTLYLEVFSMLRDEDGKPYSPSEYSLQQTRDGNVFLVPKSKKPDVKKN
